Reference: the supplement of paper PMC12823440, “Inhibitors supercharge kinase turnover through native proteolytic circuits” (Nature, 2025)
Some of the results follow. Hit calls seldom repeat between salt and free forms of one compound.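 Kinases were expressed as nanoluciferase fusions in K562 cells and luminescence was read every 4 h between 2 and 18 h as percent of control, DMSO set to 100% and a positive control to 0%. A time point counts as decreased when the signal drops significantly (2 sigma). The hit call is the authors' own, does not follow from the count of time points alone, and its rule is not shown.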

Amino acid sequences for entries named in this document (tags omitted).
UniProt P15056, whole entry, looked up: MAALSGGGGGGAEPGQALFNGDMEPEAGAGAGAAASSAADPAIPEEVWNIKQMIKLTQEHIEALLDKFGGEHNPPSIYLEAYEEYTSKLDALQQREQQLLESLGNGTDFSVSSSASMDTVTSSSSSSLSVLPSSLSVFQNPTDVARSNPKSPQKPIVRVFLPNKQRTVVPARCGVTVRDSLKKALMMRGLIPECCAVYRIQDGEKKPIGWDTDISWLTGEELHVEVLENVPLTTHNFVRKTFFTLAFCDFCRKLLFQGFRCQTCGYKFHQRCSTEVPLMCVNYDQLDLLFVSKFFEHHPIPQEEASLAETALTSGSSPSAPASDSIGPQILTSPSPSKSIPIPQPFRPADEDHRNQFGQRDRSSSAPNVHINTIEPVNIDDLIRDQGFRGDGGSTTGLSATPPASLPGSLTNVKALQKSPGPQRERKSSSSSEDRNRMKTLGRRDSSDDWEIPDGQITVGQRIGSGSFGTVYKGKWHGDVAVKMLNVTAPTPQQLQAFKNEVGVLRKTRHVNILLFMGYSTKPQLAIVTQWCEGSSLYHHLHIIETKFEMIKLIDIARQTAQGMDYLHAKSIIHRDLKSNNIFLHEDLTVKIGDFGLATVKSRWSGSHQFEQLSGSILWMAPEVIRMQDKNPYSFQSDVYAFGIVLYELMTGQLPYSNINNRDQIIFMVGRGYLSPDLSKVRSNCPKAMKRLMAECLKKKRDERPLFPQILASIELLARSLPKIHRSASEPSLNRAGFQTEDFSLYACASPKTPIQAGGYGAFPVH

target: BRAF (UniProt P15056); experiment: kinase-Nluc reporter destabilization hit call (1 = scored as downregulated) (binary); higher = compound decreases kinase abundance; conditions: K562; 2-18 h

kinase-Nluc reporter destabilization hit call, inactive:
CC(C)CCN1c2nc(Nc3cc(F)c(O)c(F)c3)ncc2N(C)C(=O)C1C (configuration not stated) (2.5 µM) 0
CC(C)=CC[C@@H](O)C1=CC(=O)c2c(O)ccc(O)c2C1=O [Shikonin] (10 µM) 0
CCC(=O)Nc1cccc(Oc2nc(Nc3ccc(N4CCN(C)CC4)cc3OC)ncc2Cl)c1 (10 µM) 0
CC(C)=CCC/C(C)=C/CC/C(C)=C/C=C/C(C)=C/C(=O)O [Peretinoin] (10 µM) 0
COc1ccc2c(Oc3ccc4c(C(=O)Nc5ccccc5N)cccc4c3)ccnc2c1 [Chiauranib] (10 µM) 0
Cc1nn(C)cc1-c1nc2c(N3CCN(Cc4ccc(Cl)cc4)CC3)c(Cl)cnc2[nH]1 (10 µM) 0
CNC(=O)c1cc2c(Oc3ccc(NC(=O)C4(C(=O)Nc5ccc(F)cc5)CC4)cc3)ccnc2cc1OC (2.5 µM) 0
O=C(Nc1cccnc1)c1cc(-c2ccnc(F)c2)ccc1OCc1ccccc1 (10 µM) 0
CN(C)c1ccc(-c2nc3ncc(Cl)c(N4CCN(CC(=O)Nc5nccs5)CC4)c3[nH]2)cc1 (2 µM) 0
Cc1cc(C(=O)NC(C)(C)C)cc(C#Cc2ccc3c4c(oc3c2)C(C)(C)c2cc(NS(C)(=O)=O)ccc2C4=O)n1 (10 µM) 0
O=C(O)c1cc(N(Cc2ccccc2O)Cc2cc(O)ccc2O)ccc1O [Lavendustin A] (10 µM) 0
C[C@@H](Nc1ncnc2[nH]c(-c3ccc(O)cc3)cc12)c1ccccc1 (2.5 µM) 0

Retrieved by structure from the list above (two):
kinase-Nluc reporter destabilization hit call, inactive:
CC(C)CCN1c2nc(Nc3cc(F)c(O)c(F)c3)ncc2N(C)C(=O)C1C (configuration not stated) (2.5 µM) 0
COc1ccc2c(Oc3ccc4c(C(=O)Nc5ccccc5N)cccc4c3)ccnc2c1 [Chiauranib] (10 µM) 0
